Values quoted from earlier work, collected in US6458838B1, “Adrenoleukodystrophy treatments” (Johns Hopkins University, priority 1999, dated 2002).
At least one structure is not confirmed: it was looked up by name or label, or the drawing left a doubt.

Legend:
Conditions in all cases: in rats; cited from earlier work
ALDRP = test system: ALDRP
ALDP = test system: ALDP
PMP70 = test system: PMP70

For CC(C)OC(=O)C(C)(C)Oc1ccc(C(=O)c2ccc(Cl)cc2)cc1 [Fenofibrate], the “expression of ALDRP” value (ALDRP) is listed as “increases expression”, the “expression of ALDP” value (ALDP) is listed as “but not ALDP” and the “expression of PMP70” value (PMP70) is listed as “increases expression”.
